The list shows a part of the results.
Key:
Experiment in all cases: log2 fold change, soluble protein after heating vs DMSO (PISA); higher = thermal stabilisation; K562 cells, 10 uM, 30 min; active = over 0.2 and 3.5 SD of the protein, either way, in both replicates (recomputed)
[1] = compound: CS(=O)(=O)c1ccc(-c2cnc(N)c(C(=O)Nc3ccccc3)n2)cc1
Outline: (§1)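 Aliquots of K562 cells (2×10^6 cells/mL) treated with 10 μM compound for 30 min were heated for 3 min over 48°C-58°C. After pooling and extraction in PBS with 0.5% NP-40 at 4°C, soluble protein from a 21,000xg, 90 min spin was quantified by TMTpro 16plex LC-MS/MS with channel sums equalised. Thermal stability is expressed against control samples, from duplicates, as a log2 fold change.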

Chains of the proteins cited; added tags and fusions are not shown. Lines headed by an entry give the natural chain unless they say otherwise; changes in a name come on top.
UniProt Q8IXB1: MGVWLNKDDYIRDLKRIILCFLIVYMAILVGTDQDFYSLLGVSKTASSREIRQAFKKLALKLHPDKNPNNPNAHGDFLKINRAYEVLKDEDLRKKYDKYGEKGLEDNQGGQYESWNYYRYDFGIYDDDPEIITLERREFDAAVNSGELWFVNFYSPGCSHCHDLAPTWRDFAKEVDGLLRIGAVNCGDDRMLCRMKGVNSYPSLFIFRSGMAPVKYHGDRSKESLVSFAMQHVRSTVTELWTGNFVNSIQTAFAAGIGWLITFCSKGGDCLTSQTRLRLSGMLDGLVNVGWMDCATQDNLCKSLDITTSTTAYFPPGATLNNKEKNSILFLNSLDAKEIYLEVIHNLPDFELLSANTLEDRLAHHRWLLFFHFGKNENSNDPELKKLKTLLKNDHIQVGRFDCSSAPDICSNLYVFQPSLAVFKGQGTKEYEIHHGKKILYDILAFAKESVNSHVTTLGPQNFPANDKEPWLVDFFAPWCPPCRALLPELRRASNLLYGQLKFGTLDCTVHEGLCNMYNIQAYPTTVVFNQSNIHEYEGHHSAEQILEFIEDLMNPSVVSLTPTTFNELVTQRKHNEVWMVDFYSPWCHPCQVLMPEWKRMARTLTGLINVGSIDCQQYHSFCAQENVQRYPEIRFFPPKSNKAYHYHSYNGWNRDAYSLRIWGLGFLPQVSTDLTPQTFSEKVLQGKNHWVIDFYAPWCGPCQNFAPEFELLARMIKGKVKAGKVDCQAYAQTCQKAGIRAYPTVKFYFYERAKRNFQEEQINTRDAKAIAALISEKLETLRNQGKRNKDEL
UniProt Q9BQC3: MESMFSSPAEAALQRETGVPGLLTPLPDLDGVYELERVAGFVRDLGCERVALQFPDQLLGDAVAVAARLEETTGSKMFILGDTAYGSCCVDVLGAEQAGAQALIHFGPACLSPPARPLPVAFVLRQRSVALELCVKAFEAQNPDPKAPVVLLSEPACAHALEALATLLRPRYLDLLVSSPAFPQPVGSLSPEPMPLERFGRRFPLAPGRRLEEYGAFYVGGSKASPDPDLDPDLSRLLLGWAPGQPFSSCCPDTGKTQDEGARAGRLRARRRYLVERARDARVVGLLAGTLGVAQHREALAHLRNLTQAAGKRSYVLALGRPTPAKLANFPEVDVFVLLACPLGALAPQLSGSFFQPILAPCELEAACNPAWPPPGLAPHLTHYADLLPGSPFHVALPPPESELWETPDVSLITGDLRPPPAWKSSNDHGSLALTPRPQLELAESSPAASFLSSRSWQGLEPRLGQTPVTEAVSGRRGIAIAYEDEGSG
UniProt Q9BVJ7: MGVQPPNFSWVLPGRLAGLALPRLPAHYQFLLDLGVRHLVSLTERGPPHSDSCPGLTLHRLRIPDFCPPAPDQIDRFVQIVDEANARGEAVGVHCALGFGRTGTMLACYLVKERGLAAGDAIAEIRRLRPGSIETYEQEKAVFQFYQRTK
UniProt Q9BZ29: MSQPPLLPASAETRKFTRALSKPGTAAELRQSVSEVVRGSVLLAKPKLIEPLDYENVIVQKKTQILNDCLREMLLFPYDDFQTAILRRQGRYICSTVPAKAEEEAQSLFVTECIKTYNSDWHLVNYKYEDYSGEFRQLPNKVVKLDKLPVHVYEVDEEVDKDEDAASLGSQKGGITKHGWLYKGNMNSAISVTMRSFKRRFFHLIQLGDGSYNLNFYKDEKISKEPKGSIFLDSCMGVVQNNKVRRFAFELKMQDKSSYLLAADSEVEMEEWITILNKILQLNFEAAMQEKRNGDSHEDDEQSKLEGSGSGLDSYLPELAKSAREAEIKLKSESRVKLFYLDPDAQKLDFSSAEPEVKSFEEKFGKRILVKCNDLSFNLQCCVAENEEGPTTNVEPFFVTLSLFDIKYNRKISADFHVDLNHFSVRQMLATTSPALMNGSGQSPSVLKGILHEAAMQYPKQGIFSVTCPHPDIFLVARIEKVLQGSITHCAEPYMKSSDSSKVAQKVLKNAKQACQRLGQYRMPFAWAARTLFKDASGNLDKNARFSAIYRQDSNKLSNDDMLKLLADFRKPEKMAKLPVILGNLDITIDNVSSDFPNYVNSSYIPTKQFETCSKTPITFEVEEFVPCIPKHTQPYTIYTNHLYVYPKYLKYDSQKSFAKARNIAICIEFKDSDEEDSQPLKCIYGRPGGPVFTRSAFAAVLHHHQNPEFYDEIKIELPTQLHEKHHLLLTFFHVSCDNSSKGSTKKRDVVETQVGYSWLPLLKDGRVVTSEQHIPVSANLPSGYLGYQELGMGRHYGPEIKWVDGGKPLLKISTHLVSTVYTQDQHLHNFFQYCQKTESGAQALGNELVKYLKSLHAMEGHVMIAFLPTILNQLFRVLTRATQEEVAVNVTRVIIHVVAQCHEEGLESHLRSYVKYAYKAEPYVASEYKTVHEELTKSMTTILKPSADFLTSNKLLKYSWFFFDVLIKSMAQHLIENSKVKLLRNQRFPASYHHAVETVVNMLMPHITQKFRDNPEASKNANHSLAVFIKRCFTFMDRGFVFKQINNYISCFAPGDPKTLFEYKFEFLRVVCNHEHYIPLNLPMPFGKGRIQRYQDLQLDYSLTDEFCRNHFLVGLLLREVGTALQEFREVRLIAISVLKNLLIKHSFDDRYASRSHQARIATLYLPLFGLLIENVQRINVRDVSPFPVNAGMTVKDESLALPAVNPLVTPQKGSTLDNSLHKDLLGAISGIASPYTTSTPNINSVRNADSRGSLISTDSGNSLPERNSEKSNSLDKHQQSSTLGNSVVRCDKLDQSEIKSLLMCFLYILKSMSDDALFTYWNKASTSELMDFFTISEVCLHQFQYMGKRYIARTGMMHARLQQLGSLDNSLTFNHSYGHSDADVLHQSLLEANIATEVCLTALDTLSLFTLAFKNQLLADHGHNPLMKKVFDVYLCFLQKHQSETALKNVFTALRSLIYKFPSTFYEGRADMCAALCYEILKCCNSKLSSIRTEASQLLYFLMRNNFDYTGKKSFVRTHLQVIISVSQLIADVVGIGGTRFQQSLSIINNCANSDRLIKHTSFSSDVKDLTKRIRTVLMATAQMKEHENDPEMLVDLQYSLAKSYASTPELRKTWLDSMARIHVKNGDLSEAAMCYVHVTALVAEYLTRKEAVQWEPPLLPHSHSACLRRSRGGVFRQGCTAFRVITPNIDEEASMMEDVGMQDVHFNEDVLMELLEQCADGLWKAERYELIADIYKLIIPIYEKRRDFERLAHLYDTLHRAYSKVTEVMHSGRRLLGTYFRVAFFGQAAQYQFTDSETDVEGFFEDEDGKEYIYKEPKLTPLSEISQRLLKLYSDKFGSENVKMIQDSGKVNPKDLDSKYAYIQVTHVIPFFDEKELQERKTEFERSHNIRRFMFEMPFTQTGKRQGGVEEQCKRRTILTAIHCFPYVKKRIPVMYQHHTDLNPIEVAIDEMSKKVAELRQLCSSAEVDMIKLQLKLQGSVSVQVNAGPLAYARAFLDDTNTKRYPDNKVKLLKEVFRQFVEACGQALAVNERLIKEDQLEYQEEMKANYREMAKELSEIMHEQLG
UniProt Q9H3H5: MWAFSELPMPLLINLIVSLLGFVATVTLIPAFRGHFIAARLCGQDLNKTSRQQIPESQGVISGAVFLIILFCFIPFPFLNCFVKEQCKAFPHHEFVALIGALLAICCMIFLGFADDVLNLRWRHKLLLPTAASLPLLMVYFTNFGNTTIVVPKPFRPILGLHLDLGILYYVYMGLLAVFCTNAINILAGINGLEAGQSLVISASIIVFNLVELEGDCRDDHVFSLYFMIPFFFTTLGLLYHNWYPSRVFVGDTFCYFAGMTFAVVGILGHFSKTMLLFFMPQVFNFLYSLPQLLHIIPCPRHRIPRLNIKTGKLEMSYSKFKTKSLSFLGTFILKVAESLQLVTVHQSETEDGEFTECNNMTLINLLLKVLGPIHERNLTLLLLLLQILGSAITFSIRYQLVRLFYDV
UniProt Q16610: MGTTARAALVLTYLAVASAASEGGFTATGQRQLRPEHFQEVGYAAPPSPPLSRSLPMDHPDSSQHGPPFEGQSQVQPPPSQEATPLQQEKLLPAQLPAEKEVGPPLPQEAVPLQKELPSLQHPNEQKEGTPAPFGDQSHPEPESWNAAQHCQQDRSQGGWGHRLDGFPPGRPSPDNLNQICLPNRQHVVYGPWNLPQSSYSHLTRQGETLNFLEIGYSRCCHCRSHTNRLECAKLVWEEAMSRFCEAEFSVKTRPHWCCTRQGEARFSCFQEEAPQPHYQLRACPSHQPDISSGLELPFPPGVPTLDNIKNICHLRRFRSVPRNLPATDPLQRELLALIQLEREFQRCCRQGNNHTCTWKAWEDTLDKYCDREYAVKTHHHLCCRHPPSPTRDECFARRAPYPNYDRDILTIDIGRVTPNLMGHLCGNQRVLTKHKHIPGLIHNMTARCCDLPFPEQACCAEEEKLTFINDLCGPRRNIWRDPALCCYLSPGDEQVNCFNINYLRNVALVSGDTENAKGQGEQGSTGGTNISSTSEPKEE
UniProt Q9BZQ6: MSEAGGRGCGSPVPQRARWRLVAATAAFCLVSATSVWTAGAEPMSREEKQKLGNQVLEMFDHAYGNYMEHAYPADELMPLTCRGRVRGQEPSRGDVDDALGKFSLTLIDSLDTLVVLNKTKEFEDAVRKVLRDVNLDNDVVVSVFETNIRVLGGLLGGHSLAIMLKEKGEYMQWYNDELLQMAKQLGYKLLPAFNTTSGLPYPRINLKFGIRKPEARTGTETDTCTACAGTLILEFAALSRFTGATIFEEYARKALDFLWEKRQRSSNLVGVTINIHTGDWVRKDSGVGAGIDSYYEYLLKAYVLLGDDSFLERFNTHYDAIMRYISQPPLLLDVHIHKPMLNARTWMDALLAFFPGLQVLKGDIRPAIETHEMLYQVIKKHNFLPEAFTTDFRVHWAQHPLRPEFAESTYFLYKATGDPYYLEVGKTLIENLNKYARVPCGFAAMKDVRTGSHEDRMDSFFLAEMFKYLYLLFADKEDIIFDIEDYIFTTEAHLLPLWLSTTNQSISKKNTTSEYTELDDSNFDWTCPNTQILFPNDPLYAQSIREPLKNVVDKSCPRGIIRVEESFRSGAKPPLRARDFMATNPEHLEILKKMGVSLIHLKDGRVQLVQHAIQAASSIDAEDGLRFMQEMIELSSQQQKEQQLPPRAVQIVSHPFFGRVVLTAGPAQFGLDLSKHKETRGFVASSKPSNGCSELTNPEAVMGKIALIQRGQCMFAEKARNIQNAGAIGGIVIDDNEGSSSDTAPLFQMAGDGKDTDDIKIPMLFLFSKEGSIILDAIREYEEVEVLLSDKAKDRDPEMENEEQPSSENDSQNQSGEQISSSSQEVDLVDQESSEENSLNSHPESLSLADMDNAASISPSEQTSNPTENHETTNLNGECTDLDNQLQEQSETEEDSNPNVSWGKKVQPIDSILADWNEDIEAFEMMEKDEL
UniProt Q9NVH1: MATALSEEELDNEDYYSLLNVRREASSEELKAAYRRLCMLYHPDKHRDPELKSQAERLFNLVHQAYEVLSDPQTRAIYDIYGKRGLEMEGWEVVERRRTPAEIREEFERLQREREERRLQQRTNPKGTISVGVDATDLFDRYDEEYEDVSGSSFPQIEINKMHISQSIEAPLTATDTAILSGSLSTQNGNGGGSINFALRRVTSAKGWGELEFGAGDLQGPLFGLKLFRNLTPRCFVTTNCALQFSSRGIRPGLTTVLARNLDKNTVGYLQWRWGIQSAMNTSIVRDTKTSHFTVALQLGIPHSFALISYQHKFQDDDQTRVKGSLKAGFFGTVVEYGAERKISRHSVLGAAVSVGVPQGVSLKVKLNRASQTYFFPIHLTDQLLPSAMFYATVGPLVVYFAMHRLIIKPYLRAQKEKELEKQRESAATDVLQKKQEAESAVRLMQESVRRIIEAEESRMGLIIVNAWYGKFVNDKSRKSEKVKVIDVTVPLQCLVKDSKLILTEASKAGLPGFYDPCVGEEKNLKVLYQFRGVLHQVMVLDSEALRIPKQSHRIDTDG
UniProt Q96EY1: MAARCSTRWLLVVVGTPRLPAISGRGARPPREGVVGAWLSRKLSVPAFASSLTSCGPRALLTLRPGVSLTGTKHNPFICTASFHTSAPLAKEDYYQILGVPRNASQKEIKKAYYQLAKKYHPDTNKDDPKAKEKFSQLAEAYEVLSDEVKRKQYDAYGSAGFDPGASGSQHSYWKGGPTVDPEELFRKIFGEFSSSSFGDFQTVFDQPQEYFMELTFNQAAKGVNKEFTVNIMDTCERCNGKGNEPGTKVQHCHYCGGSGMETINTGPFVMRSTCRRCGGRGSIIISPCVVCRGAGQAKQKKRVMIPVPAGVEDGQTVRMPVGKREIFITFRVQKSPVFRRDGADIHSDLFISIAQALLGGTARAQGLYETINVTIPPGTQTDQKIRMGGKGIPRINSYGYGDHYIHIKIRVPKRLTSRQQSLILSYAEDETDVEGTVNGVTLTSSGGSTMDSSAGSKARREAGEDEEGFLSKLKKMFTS
UniProt Q96FN9: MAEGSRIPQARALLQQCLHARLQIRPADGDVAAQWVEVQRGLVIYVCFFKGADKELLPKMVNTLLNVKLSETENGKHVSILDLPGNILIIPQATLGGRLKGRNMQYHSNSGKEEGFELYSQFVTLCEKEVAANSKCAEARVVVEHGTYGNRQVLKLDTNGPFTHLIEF

crizotinib = compound: C[C@@H](Oc1cc(-c2cnn(C3CCNCC3)c2)cnc1N)c1c(Cl)ccc(F)c1Cl [crizotinib]
Outline: as §1

[2] = compound: C[C@@H]1COCCN1C2=NC(=NC(=C2)C3(CC3)S(=O)(=O)C)C4=C5C=CNC5=CC=C4
Outline: as §1

[3] = compound: C[C@H](C1=CC=C(C=C1)C(=O)NC2=C3C=CNC3=NC=C2)N
Outline: as §1

duvelisib = compound: C[C@H](Nc1ncnc2nc[nH]c12)c1cc2cccc(Cl)c2c(=O)n1-c1ccccc1 [duvelisib]
Outline: as §1

gandotinib = compound: Cc1cc(Nc2cc(CN3CCOCC3)c3nc(C)c(Cc4ccc(Cl)cc4F)n3n2)n[nH]1 [gandotinib]
Outline: as §1

tozasertib = compound: Cc1cc(Nc2cc(N3CCN(C)CC3)nc(Sc3ccc(NC(=O)C4CC4)cc3)n2)n[nH]1 [tozasertib]
Outline: as §1

[4] = compound: Cc1cc(SCc2sc(-c3ccc(C(F)(F)F)cc3)nc2C)ccc1OCC(=O)O
Outline: as §1

doramapimod = compound: Cc1ccc(-n2nc(C(C)(C)C)cc2NC(=O)Nc2ccc(OCCN3CCOCC3)c3ccccc23)cc1 [doramapimod]
Outline: as §1

ispinesib = compound: Cc1ccc(C(=O)N(CCCN)[C@@H](c2nc3cc(Cl)ccc3c(=O)n2Cc2ccccc2)C(C)C)cc1 [ispinesib]
Outline: as §1

Measured: log2 fold change

DYNLL1 (UniProt P63167)
inactive: [1] 0.07 | crizotinib 0.128 | [2] 0.066 | [3] -0.056 | duvelisib 0 | gandotinib 0.074 | tozasertib 0.05 | [4] 0.005 | doramapimod -0.052 | ispinesib 0.104

DNAJC10 (UniProt Q8IXB1)
inactive: [1] 0.017 | crizotinib 0.025 | [2] -0.138 | [3] 0.077 | duvelisib -0.034 | gandotinib 0.104 | tozasertib -0.021 | [4] 0.045 | doramapimod 0.008 | ispinesib 0.044

DNPH1 (UniProt O43598)
inactive: [1] 0.049 | crizotinib 0.021 | [2] -0.099 | [3] -0.045 | duvelisib 0 | gandotinib 0.042 | tozasertib -0.006 | [4] 0.019 | doramapimod -0.042 | ispinesib 0.12

DPY19L4 (UniProt Q7Z388)
inactive: [1] 0.028 | crizotinib -0.076 | [2] -0.003 | [3] 0.026 | duvelisib 0.003 | gandotinib -0.011 | tozasertib -0.015 | [4] -0.181 | doramapimod -0.089 | ispinesib -0.053

ECE1 (UniProt P42892)
inactive: [1] -0.027 | crizotinib -0.086 | [2] -0.165 | [3] -0.014 | duvelisib -0.204 | gandotinib -0.193 | tozasertib 0.004 | [4] 0.064 | doramapimod -0.106 | ispinesib -0.053

DYNC1H1 (UniProt Q14204)
inactive: [1] 0.032 | crizotinib -0.045 | [2] 0.021 | [3] 0.004 | duvelisib 0.012 | gandotinib -0.018 | tozasertib -0.01 | [4] 0.047 | doramapimod -0.002 | ispinesib -0.022

DPP9 isoform 2 (UniProt Q86TI2)
inactive: [1] 0.042 | crizotinib -0.035 | [2] 0.016 | [3] 0.005 | duvelisib 0.05 | gandotinib -0.088 | tozasertib -0.072 | [4] 0.051 | doramapimod 0.044 | ispinesib -0.119

DPH2 (UniProt Q9BQC3)
inactive: [1] -0.089 | crizotinib -0.031 | [2] 0.023 | [3] 0.054 | duvelisib 0.082 | gandotinib -0.023 | tozasertib -0.022 | [4] 0.05 | doramapimod 0.039 | ispinesib -0.063

DPP7 (UniProt Q9UHL4)
inactive: [1] -0.021 | crizotinib -0.029 | [2] -0.002 | [3] -0.016 | duvelisib 0.001 | gandotinib -0.017 | tozasertib -0.036 | [4] -0.052 | doramapimod -0.01 | ispinesib 0.078

DPF2 (UniProt Q92785)
inactive: [1] 0.028 | crizotinib -0.004 | [2] -0.017 | [3] -0.02 | duvelisib -0.056 | gandotinib -0.05 | tozasertib -0.021 | [4] -0.018 | doramapimod 0.013 | ispinesib 0.026

DTL (UniProt Q9NZJ0)
inactive: [1] 0 | crizotinib 0.066 | [2] 0.005 | [3] -0.049 | duvelisib -0.002 | gandotinib 0.016 | tozasertib 0.01 | [4] 0.099 | doramapimod 0.056 | ispinesib -0.012

EBAG9 isoform 2 (UniProt O00559)
inactive: [1] 0.079 | crizotinib 0.022 | [2] -0.044 | [3] -0.073 | duvelisib 0.019 | gandotinib -0.024 | tozasertib 0.023 | [4] -0.091 | doramapimod 0.041 | ispinesib -0.037

DNAJB6 (UniProt O75190)
inactive: [1] 0 | crizotinib 0.017 | [2] -0.066 | [3] 0.031 | duvelisib -0.045 | gandotinib -0.074 | tozasertib -0.118 | [4] 0.033 | doramapimod -0.034 | ispinesib -0.037

DOCK11 (UniProt Q5JSL3)
inactive: [1] 0.028 | crizotinib -0.024 | [2] 0.035 | [3] 0.058 | duvelisib 0.035 | gandotinib -0.044 | tozasertib -0.011 | [4] 0.105 | doramapimod 0.013 | ispinesib -0.07

DUSP23 (UniProt Q9BVJ7)
inactive: [1] 0.02 | crizotinib 0.08 | [2] 0.091 | [3] -0.108 | duvelisib 0.061 | gandotinib 0.067 | tozasertib 0.064 | [4] -0.009 | doramapimod 0.002 | ispinesib 0.143

DST (UniProt Q03001)
inactive: [1] 0.12 | crizotinib -0.029 | [2] 0.075 | [3] 0.116 | duvelisib 0.122 | gandotinib 0.048 | tozasertib -0.252 | [4] -0.072 | doramapimod 0.041 | ispinesib -0.103

DPH3 (UniProt Q96FX2)
inactive: [1] -0.144 | crizotinib 0.089 | [2] -0.05 | [3] 0 | duvelisib 0.139 | gandotinib 0.054 | tozasertib -0.148 | [4] -0.306 | doramapimod -0.104

DOCK9 isoform 4 (UniProt Q9BZ29)
inactive: [1] 0.074 | crizotinib -0.002 | [2] -0.05 | [3] 0.121 | duvelisib 0.089 | gandotinib 0.087 | tozasertib 0.083 | [4] 0.014 | doramapimod -0.002 | ispinesib -0.056

DNASE2 (UniProt O00115)
inactive: [1] 0.03 | crizotinib -0.059 | [2] 0.022 | [3] -0.006 | duvelisib 0.085 | gandotinib 0.04 | tozasertib 0.005 | [4] 0.013 | doramapimod 0.045 | ispinesib -0.029

Taken from the listing (six entries):
DOCK11 (UniProt Q5JSL3)
inactive: [1] 0.028 | crizotinib -0.024 | [2] 0.035 | [3] 0.058 | duvelisib 0.035 | gandotinib -0.044 | tozasertib -0.011 | [4] 0.105 | doramapimod 0.013 | ispinesib -0.07

DUSP23 (UniProt Q9BVJ7)
inactive: [1] 0.02 | crizotinib 0.08 | [2] 0.091 | [3] -0.108 | duvelisib 0.061 | gandotinib 0.067 | tozasertib 0.064 | [4] -0.009 | doramapimod 0.002 | ispinesib 0.143

DST (UniProt Q03001)
inactive: [1] 0.12 | crizotinib -0.029 | [2] 0.075 | [3] 0.116 | duvelisib 0.122 | gandotinib 0.048 | tozasertib -0.252 | [4] -0.072 | doramapimod 0.041 | ispinesib -0.103

DPH3 (UniProt Q96FX2)
inactive: [1] -0.144 | crizotinib 0.089 | [2] -0.05 | [3] 0 | duvelisib 0.139 | gandotinib 0.054 | tozasertib -0.148 | [4] -0.306 | doramapimod -0.104

DOCK9 isoform 4 (UniProt Q9BZ29)
inactive: [1] 0.074 | crizotinib -0.002 | [2] -0.05 | [3] 0.121 | duvelisib 0.089 | gandotinib 0.087 | tozasertib 0.083 | [4] 0.014 | doramapimod -0.002 | ispinesib -0.056

DNASE2 (UniProt O00115)
inactive: [1] 0.03 | crizotinib -0.059 | [2] 0.022 | [3] -0.006 | duvelisib 0.085 | gandotinib 0.04 | tozasertib 0.005 | [4] 0.013 | doramapimod 0.045 | ispinesib -0.029

More results

DPAGT1 (UniProt Q9H3H5)
inactive: [1] -0.003 | crizotinib 0.072 | [2] -0.024 | [3] -0.193 | duvelisib 0.085 | gandotinib 0.013 | tozasertib 0.06 | [4] -0.1 | doramapimod -0.041 | ispinesib 0.043

DNAJC15 (UniProt Q9Y5T4)
inactive: [1] 0.041

ECM1 isoform 4 (UniProt Q16610)
inactive: [1] -0.053 | crizotinib 0.028 | [2] 0.005 | [3] -0.014 | duvelisib -0.04 | gandotinib 0.036 | tozasertib 0.045 | [4] -0.005 | doramapimod 0.02 | ispinesib -0.018

DUS4L (UniProt O95620)
inactive: [1] 0.127 | crizotinib 0.007 | [2] 0.213 | [3] -0.006 | duvelisib 0.029 | gandotinib 0.141 | tozasertib 0.035 | [4] 0.04 | doramapimod -0.041 | ispinesib 0.068

DPH1 (UniProt Q9BZG8)
inactive: [1] -0.052 | crizotinib -0.056 | [2] -0.072 | [3] -0.033 | duvelisib -0.056 | gandotinib -0.069 | tozasertib -0.003 | [4] 0 | doramapimod 0.014 | ispinesib 0.046

EDEM3 (UniProt Q9BZQ6)
inactive: [1] 0.025 | crizotinib 0.027 | [2] -0.067 | [3] 0.089 | duvelisib -0.001 | gandotinib 0.053 | tozasertib 0.03 | [4] 0.039 | doramapimod 0.013 | ispinesib -0.008

DNAJC11 (UniProt Q9NVH1)
inactive: [1] 0.022 | crizotinib 0.014 | [2] 0.048 | [3] -0.027 | duvelisib 0.019 | gandotinib -0.148 | tozasertib 0.017 | [4] 0.005 | doramapimod -0.018 | ispinesib -0.001

DNAJA3 (UniProt Q96EY1)
inactive: [1] -0.003 | crizotinib 0.04 | [2] -0.048 | [3] 0.069 | duvelisib 0.082 | gandotinib 0.086 | tozasertib -0.015 | [4] 0.065 | doramapimod -0.001 | ispinesib -0.03

DSC2 (UniProt Q02487)
inactive: [1] 0.175 | crizotinib 0.032 | [2] 0.024 | [3] 0.088 | duvelisib 0.078 | gandotinib 0.188 | tozasertib -0.108 | [4] -0.201 | doramapimod 0.049 | ispinesib 0.062

DNAJC16 (UniProt Q9Y2G8)
inactive: [1] 0.05 | crizotinib 0.026 | [2] -0.076 | [3] 0.263 | duvelisib 0.034 | gandotinib -0.026 | tozasertib 0.001 | [4] -0.143 | doramapimod -0.001

DUSP12 (UniProt Q9UNI6)
inactive: [1] 0.085 | crizotinib -0.168 | [2] 0.158 | [3] -0.019 | duvelisib 0.029 | gandotinib 0.095 | tozasertib 0.039 | [4] 0.06 | doramapimod 0.047 | ispinesib 0.05

DTD2 (UniProt Q96FN9)
inactive: [1] 0.183 | crizotinib 0.022 | [2] -0.095 | [3] -0.05 | duvelisib 0.052 | gandotinib 0.092 | tozasertib -0.002 | [4] -0.03 | doramapimod 0.057
